Results are given in words; binding and its absence hold for the method and conditions named. Some results given as binding are weak or reduced against the parent protein; the word gives no strength.
Legend:
Assay in all cases: peptide or protein array; HuProt human proteome microarray; 5 ug/5 ml biotin-labelled LUBAC or OTULIN in solution, 1 h at room temperature; Cy5-streptavidin, scanned at 635 nm; BSA as negative control; hits: Z-score >= 3 and I_(Mean_Ratio) >= 1.4; both purified
[1] = molecular target: GTF2B (human) (UniProt Q00403)
[2] = molecular target: NCOA3 (human) (UniProt Q9Y6Q9)
[3] = molecular target: T1, SSBP2 (human) (UniProt P81877)
T1 sequence: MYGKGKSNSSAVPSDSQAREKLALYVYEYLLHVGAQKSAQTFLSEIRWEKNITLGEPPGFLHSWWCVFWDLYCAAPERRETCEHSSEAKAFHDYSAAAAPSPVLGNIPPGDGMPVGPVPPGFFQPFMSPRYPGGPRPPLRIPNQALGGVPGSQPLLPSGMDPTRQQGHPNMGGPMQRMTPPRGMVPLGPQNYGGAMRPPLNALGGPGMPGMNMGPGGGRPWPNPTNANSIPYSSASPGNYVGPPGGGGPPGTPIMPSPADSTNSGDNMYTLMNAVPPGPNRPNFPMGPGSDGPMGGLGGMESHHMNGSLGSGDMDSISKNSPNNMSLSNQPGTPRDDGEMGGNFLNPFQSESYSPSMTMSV

Sequences of proteins named here, by UniProt entry; tags and fusion partners are left off.
UniProt Q00403: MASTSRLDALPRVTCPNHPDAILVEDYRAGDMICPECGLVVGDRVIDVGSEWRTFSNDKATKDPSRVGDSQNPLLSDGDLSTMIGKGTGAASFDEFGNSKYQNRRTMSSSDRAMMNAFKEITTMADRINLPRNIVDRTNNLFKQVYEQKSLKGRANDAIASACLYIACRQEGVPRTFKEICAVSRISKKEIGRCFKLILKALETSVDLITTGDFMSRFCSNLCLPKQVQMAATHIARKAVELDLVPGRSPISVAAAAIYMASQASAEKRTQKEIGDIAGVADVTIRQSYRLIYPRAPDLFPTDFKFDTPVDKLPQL
UniProt Q9Y6Q9: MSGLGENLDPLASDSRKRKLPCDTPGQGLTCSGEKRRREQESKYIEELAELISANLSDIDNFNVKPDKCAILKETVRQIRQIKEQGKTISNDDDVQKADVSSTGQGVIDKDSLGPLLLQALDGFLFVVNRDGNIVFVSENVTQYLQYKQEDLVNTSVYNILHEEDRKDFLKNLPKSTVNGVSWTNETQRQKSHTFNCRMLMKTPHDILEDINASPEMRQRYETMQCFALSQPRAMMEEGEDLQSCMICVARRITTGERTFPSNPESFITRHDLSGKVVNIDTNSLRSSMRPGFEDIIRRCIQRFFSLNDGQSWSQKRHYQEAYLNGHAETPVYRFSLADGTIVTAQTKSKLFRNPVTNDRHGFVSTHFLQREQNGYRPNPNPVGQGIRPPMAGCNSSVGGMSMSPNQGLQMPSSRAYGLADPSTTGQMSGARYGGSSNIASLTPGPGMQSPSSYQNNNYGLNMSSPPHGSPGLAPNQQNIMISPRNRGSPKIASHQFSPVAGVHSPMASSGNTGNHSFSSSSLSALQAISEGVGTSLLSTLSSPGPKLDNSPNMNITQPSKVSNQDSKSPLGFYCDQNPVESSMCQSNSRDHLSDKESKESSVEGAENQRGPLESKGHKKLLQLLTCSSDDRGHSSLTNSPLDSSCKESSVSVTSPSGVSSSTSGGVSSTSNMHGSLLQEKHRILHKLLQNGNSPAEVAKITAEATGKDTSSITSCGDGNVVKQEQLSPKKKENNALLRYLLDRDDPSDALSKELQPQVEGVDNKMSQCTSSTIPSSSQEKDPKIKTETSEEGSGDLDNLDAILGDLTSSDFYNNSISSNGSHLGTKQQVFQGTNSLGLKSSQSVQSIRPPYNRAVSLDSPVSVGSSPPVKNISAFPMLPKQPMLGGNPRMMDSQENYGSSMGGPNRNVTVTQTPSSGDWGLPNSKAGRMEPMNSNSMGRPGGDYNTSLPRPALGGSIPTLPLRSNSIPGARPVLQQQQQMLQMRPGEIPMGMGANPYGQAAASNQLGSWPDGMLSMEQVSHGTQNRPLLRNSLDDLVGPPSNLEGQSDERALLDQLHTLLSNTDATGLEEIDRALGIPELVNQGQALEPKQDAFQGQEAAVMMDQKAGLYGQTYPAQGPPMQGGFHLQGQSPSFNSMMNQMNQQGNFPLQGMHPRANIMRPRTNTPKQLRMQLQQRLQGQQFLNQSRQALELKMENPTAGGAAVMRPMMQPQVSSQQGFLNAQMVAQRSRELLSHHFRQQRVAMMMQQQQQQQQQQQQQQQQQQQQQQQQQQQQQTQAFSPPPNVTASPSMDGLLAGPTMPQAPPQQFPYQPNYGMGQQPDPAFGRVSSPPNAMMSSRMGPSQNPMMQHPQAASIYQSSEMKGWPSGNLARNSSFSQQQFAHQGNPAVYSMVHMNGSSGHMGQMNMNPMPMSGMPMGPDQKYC

[4] = molecular target: EIF4H (human) (UniProt Q15056)
[5] = molecular target: T2, SMARCAL1 (human) (UniProt Q9NZC9)
T2 sequence: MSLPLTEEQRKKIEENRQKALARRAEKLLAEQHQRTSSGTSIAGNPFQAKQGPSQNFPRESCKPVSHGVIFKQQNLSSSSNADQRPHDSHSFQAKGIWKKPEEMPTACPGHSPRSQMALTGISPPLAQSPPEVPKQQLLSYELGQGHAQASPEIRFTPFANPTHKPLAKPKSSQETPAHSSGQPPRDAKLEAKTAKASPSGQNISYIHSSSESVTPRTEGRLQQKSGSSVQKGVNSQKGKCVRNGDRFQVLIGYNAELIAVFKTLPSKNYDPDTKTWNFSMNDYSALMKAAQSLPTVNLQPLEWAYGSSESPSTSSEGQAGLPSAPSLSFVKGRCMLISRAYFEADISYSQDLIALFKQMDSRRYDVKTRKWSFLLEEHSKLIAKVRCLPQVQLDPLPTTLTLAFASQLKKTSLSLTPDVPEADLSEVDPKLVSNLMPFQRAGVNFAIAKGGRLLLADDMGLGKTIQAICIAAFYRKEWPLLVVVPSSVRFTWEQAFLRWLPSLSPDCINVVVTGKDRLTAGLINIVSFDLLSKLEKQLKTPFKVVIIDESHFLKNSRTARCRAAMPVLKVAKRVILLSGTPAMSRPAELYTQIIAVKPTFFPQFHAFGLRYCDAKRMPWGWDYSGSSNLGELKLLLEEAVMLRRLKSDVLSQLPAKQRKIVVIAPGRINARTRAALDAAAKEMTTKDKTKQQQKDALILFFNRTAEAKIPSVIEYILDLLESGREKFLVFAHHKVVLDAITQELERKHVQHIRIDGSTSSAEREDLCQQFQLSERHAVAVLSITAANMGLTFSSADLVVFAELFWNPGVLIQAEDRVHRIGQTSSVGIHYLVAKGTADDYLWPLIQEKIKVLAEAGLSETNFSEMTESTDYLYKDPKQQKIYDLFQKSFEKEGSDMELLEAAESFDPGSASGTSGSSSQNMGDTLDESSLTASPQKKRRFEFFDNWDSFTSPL

[6] = molecular target: T3, SPATC1 (human) (UniProt Q76KD6)
T3 sequence: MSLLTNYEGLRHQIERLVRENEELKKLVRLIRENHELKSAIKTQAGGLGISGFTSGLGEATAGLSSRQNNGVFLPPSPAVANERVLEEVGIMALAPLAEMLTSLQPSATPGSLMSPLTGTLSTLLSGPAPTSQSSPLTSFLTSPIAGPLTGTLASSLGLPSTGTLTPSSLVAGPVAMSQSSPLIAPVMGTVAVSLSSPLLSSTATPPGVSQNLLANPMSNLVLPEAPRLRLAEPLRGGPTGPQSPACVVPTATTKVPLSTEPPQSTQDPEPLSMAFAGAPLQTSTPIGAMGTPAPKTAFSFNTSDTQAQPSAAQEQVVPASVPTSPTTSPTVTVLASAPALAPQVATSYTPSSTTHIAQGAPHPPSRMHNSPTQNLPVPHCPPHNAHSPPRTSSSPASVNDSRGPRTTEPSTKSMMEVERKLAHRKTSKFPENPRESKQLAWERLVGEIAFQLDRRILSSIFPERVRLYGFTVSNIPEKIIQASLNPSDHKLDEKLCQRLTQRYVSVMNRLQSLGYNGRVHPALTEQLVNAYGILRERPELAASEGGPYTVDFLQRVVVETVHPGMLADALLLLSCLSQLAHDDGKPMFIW

binding [1]: binds | binding [2]: binds | binding [3]: binds | binding [4]: binds | binding [5]: binds | binding [6]: binds
Substance: linear ubiquitin chain assembly complex (LUBAC), purified as HIS-tagged HOIP with the subunit HOIL-1, biotin-labelled (from UniProt Q96EP0 1-1072; Q9BYM8 1-510)
